Measured values from the supplement of paper PMC10849652.
The other results are listed elsewhere or left out.

By UniProt entry, the sequences of proteins in these tests, tags left out. Where a name states a change or a piece, a line headed by the entry shows the natural chain unless it says otherwise.
UniProt Q05BV3: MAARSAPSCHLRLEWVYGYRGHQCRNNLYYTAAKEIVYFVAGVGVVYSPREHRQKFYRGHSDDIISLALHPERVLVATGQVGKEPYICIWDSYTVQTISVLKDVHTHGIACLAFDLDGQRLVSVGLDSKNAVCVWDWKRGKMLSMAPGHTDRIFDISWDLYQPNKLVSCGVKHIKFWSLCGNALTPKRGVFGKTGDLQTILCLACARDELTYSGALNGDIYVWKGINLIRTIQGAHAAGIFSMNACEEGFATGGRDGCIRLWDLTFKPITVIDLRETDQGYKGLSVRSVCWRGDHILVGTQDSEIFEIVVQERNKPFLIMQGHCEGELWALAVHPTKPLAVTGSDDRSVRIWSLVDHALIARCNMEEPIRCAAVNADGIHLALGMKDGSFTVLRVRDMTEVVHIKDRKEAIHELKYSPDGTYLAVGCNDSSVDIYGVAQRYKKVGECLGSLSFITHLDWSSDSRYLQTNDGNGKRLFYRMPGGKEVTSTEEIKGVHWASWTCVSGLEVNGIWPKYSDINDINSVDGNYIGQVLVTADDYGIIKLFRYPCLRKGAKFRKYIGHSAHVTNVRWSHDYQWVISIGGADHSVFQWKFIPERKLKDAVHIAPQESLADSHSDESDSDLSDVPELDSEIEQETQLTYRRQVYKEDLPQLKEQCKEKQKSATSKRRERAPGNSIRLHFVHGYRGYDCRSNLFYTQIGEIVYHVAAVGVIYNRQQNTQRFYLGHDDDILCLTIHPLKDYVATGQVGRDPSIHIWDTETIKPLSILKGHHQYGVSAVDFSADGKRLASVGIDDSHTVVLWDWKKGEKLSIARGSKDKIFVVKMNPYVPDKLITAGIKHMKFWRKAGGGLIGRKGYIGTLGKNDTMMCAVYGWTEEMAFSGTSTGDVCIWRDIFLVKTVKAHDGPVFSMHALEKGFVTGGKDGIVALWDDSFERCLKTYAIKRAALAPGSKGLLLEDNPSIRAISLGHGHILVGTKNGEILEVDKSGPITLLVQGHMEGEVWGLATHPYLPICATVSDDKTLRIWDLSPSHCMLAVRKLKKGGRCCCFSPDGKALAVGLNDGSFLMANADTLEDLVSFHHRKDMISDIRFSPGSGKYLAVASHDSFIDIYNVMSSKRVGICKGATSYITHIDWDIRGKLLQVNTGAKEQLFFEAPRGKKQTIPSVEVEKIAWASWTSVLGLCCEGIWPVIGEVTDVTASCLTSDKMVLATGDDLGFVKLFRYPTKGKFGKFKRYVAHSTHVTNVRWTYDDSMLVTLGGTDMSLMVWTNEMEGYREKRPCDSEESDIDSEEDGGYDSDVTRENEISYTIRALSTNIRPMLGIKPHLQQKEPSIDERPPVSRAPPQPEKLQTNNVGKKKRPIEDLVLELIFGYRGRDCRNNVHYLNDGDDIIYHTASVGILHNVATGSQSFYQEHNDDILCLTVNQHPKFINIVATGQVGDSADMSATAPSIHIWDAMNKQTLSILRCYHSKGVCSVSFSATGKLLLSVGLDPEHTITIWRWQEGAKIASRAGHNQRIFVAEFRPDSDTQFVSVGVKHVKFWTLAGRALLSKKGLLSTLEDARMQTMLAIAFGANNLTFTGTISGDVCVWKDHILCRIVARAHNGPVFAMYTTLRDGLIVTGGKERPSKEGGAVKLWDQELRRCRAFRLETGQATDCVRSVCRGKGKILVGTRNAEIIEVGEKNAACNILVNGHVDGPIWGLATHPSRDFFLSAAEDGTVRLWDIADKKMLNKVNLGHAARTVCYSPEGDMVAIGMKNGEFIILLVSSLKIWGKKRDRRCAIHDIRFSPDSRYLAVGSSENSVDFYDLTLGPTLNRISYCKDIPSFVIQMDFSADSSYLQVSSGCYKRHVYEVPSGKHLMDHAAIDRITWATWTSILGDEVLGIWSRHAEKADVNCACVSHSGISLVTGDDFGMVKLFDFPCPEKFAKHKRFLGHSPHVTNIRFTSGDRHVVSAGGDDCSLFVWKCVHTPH
UniProt P26378: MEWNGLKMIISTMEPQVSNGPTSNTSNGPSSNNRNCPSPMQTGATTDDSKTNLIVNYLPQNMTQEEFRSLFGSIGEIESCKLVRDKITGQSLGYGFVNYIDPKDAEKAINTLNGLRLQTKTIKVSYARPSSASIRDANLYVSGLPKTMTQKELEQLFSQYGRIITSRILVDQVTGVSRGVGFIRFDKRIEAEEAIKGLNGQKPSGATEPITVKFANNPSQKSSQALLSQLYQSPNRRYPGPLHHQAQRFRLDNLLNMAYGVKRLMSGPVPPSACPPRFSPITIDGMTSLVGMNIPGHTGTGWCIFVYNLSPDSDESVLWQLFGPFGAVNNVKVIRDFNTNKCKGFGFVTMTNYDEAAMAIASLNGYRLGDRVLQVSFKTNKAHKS
UniProt Q96JJ3: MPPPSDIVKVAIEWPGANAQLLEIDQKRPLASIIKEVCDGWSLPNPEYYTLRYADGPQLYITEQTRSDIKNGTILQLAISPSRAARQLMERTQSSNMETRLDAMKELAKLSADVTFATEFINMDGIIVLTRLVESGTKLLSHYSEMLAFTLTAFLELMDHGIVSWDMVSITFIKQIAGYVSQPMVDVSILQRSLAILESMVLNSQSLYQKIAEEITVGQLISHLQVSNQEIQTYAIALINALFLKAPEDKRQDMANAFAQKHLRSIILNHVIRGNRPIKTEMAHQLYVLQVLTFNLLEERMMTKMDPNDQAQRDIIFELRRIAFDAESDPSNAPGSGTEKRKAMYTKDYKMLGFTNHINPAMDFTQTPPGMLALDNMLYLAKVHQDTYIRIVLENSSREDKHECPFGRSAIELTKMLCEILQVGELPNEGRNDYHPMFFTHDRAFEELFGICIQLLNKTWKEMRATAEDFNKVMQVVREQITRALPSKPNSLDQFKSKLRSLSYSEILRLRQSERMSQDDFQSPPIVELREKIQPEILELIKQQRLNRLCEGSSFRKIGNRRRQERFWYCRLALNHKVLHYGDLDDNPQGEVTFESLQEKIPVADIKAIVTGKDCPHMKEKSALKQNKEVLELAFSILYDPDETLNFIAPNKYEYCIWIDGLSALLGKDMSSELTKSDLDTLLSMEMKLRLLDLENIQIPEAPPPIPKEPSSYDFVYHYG
UniProt Q9H4G0, whole entry, looked up: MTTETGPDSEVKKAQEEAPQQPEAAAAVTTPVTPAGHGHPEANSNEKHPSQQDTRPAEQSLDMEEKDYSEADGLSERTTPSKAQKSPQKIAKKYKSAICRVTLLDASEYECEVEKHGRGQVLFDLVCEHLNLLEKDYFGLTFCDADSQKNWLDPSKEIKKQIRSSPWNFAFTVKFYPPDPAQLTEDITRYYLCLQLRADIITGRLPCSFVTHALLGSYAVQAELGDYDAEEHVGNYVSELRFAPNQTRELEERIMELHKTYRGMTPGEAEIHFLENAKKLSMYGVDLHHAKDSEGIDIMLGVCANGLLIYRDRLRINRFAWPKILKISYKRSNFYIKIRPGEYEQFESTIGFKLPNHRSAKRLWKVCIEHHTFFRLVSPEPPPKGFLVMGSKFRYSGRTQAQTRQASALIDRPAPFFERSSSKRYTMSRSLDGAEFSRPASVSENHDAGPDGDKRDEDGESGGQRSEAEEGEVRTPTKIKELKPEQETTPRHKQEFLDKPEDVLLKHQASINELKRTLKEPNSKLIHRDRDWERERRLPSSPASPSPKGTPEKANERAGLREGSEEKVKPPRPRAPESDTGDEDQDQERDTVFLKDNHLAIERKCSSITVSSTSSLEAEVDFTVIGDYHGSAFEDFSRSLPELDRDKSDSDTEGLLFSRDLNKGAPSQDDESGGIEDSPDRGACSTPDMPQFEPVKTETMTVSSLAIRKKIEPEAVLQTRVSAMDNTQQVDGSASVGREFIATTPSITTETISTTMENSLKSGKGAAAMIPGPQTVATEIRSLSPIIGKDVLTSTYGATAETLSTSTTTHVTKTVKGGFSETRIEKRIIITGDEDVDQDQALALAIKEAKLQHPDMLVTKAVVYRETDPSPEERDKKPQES
UniProt Q8N5X7: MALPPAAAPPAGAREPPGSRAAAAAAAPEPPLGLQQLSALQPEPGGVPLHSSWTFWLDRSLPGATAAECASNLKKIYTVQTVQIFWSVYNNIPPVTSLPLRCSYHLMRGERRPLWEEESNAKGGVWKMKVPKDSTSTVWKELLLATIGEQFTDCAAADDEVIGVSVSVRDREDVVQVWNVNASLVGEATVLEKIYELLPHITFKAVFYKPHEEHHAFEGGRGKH
UniProt O00418: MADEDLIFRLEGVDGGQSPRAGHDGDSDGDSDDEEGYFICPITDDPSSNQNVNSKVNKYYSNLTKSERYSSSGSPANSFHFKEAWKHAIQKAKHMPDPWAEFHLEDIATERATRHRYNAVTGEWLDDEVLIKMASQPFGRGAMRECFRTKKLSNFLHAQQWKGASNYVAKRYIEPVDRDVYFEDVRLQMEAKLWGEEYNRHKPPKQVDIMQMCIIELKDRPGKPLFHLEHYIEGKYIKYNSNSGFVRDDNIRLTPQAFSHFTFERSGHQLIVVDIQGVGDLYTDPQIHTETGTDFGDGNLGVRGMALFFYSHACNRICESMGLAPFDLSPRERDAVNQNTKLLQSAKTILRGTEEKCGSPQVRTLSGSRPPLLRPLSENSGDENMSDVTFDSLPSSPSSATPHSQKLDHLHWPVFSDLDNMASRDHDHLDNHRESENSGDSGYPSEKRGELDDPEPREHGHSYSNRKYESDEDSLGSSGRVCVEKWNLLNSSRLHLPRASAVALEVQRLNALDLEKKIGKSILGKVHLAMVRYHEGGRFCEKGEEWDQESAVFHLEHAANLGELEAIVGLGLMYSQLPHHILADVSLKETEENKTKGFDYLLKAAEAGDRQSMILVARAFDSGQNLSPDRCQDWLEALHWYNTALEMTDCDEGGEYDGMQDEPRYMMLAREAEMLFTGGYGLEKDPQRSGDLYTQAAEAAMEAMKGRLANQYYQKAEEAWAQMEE
UniProt A1L3X0: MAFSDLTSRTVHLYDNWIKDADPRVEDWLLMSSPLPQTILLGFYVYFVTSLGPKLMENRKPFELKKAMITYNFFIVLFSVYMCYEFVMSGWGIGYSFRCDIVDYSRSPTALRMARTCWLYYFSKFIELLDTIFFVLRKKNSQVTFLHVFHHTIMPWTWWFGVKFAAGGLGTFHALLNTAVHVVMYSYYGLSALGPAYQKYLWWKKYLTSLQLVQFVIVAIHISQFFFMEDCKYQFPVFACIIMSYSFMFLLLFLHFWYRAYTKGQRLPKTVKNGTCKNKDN
UniProt Q8WVE0: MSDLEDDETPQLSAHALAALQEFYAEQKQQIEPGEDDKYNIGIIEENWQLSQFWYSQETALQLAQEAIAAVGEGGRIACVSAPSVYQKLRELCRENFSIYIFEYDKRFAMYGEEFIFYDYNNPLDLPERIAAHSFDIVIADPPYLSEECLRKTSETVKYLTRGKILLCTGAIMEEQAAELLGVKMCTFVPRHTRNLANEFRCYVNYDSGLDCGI
UniProt Q9H0I2: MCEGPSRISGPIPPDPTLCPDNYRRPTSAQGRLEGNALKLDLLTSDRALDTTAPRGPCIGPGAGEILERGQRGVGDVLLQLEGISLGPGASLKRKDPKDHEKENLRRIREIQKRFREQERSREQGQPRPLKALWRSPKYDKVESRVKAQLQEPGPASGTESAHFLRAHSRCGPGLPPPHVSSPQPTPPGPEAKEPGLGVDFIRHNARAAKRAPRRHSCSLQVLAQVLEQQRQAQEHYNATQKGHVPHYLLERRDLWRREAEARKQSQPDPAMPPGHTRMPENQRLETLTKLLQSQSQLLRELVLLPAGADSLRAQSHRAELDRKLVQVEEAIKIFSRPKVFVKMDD
UniProt Q5VUJ9: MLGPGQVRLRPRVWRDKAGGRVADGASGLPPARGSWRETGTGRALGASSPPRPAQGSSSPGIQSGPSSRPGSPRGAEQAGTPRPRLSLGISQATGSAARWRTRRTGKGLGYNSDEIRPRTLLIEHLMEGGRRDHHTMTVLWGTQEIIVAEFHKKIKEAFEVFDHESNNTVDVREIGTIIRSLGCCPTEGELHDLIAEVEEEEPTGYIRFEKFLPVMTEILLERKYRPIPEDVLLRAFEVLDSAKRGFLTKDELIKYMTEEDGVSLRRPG
UniProt Q9GZV4: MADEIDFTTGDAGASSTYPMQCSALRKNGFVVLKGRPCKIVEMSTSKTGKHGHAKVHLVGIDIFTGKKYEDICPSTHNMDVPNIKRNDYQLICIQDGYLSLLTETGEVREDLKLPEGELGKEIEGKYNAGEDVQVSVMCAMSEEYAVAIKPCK

Columns and labels:
Test in all cases: log2 fold change, soluble protein after heating vs DMSO (PISA); higher = thermal stabilisation; K562 cells, 10 uM, 30 min; active = over 0.2 and 3.5 SD of the protein, either way, in both replicates (recomputed)
[1] = compound: C[C@H](Nc1ncnc2nc[nH]c12)c1cc2cccc(Cl)c2c(=O)n1-c1ccccc1 [duvelisib]
Summary of the method: (§1)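 Quantification of soluble protein used TMTpro 16plex LC-MS/MS, with channel sums equalised. Samples were the supernatant after 21,000xg for 90 min of pooled aliquots from K562 cells (2×10^6 cells/mL) treated with 10 μM compound for 30 min, heated for 3 min over 48°C-58°C, and extracted in PBS with 0.5% NP-40 at 4°C. Values, from duplicates, describe thermal stability against control samples on a log2 fold-change scale.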

[2] = compound: Cc1cc(SCc2sc(-c3ccc(C(F)(F)F)cc3)nc2C)ccc1OCC(=O)O
Summary of the method: as §1

[3] = compound: Cc1ccc(C(=O)N(CCCN)[C@@H](c2nc3cc(Cl)ccc3c(=O)n2Cc2ccccc2)C(C)C)cc1 [ispinesib]
Summary of the method: as §1

[4] = compound: C[C@@H]1COCCN1C2=NC(=NC(=C2)C3(CC3)S(=O)(=O)C)C4=C5C=CNC5=CC=C4
Summary of the method: as §1

[5] = compound: C[C@@H](Oc1cc(-c2cnn(C3CCNCC3)c2)cnc1N)c1c(Cl)ccc(F)c1Cl [crizotinib]
Summary of the method: as §1

[6] = compound: C[C@H](C1=CC=C(C=C1)C(=O)NC2=C3C=CNC3=NC=C2)N
Summary of the method: as §1

[7] = compound: Cc1cc(Nc2cc(N3CCN(C)CC3)nc(Sc3ccc(NC(=O)C4CC4)cc3)n2)n[nH]1 [tozasertib]
Summary of the method: as §1

[8] = compound: Cc1ccc(-n2nc(C(C)(C)C)cc2NC(=O)Nc2ccc(OCCN3CCOCC3)c3ccccc23)cc1 [doramapimod]
Summary of the method: as §1

[9] = compound: Cc1cc(Nc2cc(CN3CCOCC3)c3nc(C)c(Cc4ccc(Cl)cc4F)n3n2)n[nH]1 [gandotinib]
Summary of the method: as §1

[10] = compound: CS(=O)(=O)c1ccc(-c2cnc(N)c(C(=O)Nc3ccccc3)n2)cc1
Summary of the method: as §1

Measured: log2 fold change

ENO3 (UniProt K7EKN2)
inactive: [1] 0.119 | [2] 0.085 | [3] -0.234

EIF3E (UniProt E5RIT4)
inactive: [4] -0.059

EML5 isoform 5 (UniProt Q05BV3)
inactive: [5] -0.145 | [6] -0.06 | [1] 0.024 | [7] -0.048 | [2] 0.058 | [8] 0.02 | [3] 0.023

ELAVL4 (UniProt P26378)
inactive: [5] 0.062 | [6] 0.105 | [9] 0.154 | [7] 0.116 | [8] -0.121 | [3] -0.003

ELMO2 (UniProt Q96JJ3)
inactive: [1] 0.125 | [2] -0.023 | [3] 0.029

EPB41L1 (UniProt Q9H4G0)
inactive: [5] 0.03 | [4] -0.026 | [6] -0.04 | [1] -0.074 | [9] 0.091 | [7] -0.15 | [2] 0.058 | [8] 0.077 | [3] -0.02

EIF4E3 (UniProt Q8N5X7)
inactive: [5] 0.019 | [8] -0.063 | [3] 0.065

EEF2K (UniProt O00418)
inactive: [4] -0.044 | [6] 0.4 | [9] 0.13 | [3] -0.208

ELOVL7 (UniProt A1L3X0)
inactive: [4] 0.088 | [6] 0.037 | [2] 0.025

EEF1AKMT1 (UniProt Q8WVE0)
inactive: [4] -0.086

ENKD1 (UniProt Q9H0I2)
inactive: [9] 0.002 | [7] -0.202

EPB41, A0A2R8Y6D0
inactive: [10] 0.191 | [6] -0.084 | [9] 0.088 | [7] -0.063 | [3] -0.09

EFCAB2 (UniProt Q5VUJ9)
inactive: [9] 0.028 | [3] -0.256

2 consecutive records out of the list so far:
ENKD1 (UniProt Q9H0I2)
inactive: [9] 0.002 | [7] -0.202

EPB41, A0A2R8Y6D0
inactive: [10] 0.191 | [6] -0.084 | [9] 0.088 | [7] -0.063 | [3] -0.09

Next entries

EIF5A2 (UniProt Q9GZV4)
inactive: [6] -0.02 | [1] 0.095 | [2] 0.193 | [3] 0.023

EIF4B (UniProt F8VP89)
inactive: [5] -0.055 | [6] -0.041 | [9] 0.117 | [8] -0.085 | [3] 0.019

EHBP1 (UniProt Q8NDI1)
inactive: [6] 0.158 | [9] 0.015
